Values quoted from earlier work in patent US20040186098A1 (Amgen Inc., priority 1997, published 2004).
At least one compound was matched to its structure with a doubt left.

Test system: PC12 cells or sensory neurons from dorsal root ganglia
Details: cell culture; cited from earlier work

C=CC[C@@H]1/C=C(\C)C[C@H](C)C[C@H](OC)[C@H]2O[C@@](O)(C(=O)C(=O)N3CCCC[C@H]3C(=O)O[C@H](/C(C)=C/[C@@H]3CC[C@@H](O)[C@H](OC)C3)[C@H](C)[C@@H](O)CC1=O)[C@H](C)C[C@@H]2OC [FK506]
potency of promoting process (neurite) extension: subnanomolar
